Data from paper PMC5543055.
No constants are given. Whether binding was seen depends on the method and setting. In cells and extracts the contact can be indirect. Some entries that bind do so weakly or less than the wild type.

By UniProt entry, the sequences of proteins in these tests, tags left out. Where a name states a change or a piece, a line headed by the entry shows the natural chain unless it says otherwise.
UniProt P49327: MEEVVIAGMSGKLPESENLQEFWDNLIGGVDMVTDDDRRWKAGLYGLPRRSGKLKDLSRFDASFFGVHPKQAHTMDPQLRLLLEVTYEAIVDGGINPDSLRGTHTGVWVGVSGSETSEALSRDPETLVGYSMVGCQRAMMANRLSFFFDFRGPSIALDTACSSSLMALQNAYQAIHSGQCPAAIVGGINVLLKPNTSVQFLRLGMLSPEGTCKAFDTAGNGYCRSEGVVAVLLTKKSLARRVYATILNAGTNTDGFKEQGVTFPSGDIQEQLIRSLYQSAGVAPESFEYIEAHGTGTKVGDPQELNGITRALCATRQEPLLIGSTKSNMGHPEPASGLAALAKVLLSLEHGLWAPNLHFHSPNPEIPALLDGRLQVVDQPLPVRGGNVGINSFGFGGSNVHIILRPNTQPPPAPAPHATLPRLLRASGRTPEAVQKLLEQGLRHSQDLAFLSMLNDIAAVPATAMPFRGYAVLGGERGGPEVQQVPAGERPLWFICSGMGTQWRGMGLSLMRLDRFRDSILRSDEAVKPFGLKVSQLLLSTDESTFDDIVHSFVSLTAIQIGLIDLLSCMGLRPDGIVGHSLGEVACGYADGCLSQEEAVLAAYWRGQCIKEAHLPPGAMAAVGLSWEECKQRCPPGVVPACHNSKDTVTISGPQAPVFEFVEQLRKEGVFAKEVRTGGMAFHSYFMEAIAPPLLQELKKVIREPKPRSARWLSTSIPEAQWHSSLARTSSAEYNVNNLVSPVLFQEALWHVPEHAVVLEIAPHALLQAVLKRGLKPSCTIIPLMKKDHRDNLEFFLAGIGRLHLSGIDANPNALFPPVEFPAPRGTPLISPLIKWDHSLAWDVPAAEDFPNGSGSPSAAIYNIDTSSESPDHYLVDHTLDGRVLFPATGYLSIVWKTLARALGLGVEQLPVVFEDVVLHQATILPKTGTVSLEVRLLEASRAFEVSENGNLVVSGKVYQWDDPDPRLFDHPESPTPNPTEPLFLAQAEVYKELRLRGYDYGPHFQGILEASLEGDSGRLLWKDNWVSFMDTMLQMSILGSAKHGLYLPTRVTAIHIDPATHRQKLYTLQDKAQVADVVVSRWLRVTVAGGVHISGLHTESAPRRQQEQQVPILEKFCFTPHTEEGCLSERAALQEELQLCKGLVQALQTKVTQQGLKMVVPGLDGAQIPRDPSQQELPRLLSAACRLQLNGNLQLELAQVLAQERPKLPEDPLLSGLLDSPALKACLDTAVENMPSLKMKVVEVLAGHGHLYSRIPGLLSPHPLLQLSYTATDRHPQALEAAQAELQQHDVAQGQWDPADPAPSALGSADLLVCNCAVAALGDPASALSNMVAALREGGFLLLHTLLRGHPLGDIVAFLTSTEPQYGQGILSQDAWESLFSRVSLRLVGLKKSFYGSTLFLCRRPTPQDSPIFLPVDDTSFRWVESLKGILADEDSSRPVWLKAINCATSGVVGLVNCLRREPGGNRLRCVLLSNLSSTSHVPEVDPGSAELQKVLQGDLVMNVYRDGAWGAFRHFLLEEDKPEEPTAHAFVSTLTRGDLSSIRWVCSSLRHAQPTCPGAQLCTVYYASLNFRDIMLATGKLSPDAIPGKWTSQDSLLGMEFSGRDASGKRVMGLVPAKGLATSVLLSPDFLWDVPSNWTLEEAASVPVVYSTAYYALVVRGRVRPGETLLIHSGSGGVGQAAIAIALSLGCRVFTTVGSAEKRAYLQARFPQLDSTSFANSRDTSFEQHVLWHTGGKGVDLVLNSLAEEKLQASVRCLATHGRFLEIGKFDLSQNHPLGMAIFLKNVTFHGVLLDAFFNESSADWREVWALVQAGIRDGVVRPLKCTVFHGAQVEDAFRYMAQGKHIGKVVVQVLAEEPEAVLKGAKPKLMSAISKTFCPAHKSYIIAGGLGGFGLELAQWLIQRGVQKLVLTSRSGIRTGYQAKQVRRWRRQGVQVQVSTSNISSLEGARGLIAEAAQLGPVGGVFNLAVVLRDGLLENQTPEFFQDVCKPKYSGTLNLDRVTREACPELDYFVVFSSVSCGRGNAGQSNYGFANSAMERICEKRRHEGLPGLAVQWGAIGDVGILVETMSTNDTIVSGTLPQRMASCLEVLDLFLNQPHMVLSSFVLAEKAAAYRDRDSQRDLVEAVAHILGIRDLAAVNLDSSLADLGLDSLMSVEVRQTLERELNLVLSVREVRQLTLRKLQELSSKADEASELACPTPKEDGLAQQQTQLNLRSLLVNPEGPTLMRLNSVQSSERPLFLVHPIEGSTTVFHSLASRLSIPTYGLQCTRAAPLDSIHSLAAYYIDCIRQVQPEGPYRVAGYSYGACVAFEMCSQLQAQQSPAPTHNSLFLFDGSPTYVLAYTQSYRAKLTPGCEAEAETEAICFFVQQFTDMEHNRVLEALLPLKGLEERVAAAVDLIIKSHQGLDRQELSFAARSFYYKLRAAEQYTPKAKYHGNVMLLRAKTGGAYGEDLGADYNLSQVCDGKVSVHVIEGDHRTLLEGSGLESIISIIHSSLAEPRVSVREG
UniProt P40337: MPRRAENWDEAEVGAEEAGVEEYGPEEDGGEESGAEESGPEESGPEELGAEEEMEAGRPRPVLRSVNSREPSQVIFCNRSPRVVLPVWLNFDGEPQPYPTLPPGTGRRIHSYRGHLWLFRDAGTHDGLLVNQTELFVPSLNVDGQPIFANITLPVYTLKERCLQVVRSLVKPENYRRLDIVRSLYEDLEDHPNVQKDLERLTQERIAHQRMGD
UniProt P27708: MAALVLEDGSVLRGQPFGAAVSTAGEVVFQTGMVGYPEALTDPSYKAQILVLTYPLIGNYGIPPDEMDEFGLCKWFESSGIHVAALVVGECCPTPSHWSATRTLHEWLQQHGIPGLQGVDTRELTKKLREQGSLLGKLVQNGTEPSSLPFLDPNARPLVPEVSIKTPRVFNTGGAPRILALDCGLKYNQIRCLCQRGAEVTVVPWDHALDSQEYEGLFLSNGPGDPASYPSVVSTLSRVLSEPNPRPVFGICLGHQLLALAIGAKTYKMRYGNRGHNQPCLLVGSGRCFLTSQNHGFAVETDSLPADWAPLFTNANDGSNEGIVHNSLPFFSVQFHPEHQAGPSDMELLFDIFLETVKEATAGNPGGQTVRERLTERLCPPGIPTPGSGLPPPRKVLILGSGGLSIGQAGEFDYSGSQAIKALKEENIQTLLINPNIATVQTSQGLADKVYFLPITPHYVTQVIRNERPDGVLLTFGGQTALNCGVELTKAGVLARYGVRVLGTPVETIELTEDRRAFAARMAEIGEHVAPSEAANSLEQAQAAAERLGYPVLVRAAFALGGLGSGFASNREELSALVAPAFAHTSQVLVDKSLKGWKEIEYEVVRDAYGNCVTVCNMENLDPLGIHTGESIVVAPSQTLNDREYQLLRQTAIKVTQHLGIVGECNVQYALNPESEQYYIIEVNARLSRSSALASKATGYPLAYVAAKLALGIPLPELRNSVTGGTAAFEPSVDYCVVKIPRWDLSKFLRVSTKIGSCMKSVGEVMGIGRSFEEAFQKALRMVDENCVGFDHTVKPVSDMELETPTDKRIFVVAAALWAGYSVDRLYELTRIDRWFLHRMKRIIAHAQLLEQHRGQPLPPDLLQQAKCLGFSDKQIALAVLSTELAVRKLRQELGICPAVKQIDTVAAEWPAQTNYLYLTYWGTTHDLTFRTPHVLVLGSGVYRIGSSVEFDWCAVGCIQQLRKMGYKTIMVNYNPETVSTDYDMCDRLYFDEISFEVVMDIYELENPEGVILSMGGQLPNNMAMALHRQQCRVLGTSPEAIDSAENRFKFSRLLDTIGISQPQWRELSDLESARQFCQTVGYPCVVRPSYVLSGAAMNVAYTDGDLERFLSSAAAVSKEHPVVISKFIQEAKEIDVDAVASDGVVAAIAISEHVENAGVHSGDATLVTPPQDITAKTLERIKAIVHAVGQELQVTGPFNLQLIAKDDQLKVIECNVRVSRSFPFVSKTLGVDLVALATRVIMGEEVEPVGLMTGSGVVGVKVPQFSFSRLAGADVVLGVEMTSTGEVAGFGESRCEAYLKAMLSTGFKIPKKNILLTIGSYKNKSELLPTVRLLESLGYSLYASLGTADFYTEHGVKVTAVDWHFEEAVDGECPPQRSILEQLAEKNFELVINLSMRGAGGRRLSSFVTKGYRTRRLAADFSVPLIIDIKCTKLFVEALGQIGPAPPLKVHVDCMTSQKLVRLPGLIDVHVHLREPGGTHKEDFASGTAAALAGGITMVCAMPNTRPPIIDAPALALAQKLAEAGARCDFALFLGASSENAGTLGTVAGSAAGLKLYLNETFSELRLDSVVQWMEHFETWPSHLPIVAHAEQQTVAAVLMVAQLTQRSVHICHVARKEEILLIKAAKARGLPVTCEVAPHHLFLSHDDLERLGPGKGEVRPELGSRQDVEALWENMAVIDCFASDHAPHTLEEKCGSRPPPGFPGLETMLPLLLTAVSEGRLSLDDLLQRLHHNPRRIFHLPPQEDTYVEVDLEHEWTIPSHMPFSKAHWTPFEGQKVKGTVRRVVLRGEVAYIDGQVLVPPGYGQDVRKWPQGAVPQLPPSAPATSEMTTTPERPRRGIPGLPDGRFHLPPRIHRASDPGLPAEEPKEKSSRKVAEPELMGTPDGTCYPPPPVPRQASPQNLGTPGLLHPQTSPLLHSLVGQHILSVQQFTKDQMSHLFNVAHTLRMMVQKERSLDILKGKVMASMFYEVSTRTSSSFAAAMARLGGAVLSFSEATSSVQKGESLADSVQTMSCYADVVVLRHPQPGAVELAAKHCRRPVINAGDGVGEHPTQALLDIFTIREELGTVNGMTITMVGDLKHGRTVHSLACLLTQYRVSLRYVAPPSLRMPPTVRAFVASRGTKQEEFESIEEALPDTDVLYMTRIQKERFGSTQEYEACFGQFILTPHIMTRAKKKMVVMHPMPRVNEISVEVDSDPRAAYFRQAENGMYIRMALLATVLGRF

Columns and labels:
[1] = target: fatty acid synthase (FASN), endogenous in HCT116 (human (endogenous in HCT116)) (UniProt P49327); assay: co-IP; endogenous proteins from HCT116 whole cell extracts (M-PER buffer, 10 µM MG132); antibody-conjugated Protein-G Sepharose overnight, washes up to 300 mM NaCl, elution with 1% SDS, western blot
[2] = target: Flag-tagged FASN stably expressed in HCT116 (human) (UniProt P49327); assay: co-IP; whole cell extracts of HCT116 stably expressing Flag-tagged proteins; anti-Flag M2 affinity agarose overnight, washes up to 300 mM NaCl, elution with Flag peptide, western blot (and silver staining)
[3] = target: Flag-tagged pVHL-H115Q, stably expressed in HCT116 (human) (UniProt P40337); assay: as above
[4] = target: Flag-tagged wild-type von Hippel-Lindau tumour suppressor protein (pVHL), stably expressed in HCT116 (human) (UniProt P40337); assay: as above

Measured: binding

carbamoyl-phosphate synthetase 2, aspartate transcarbamylase and dihydroorotase (CAD), endogenous in HCT116 (from UniProt P27708 1-2225) (enzyme)
binds: all assays above
